{"source": "patent US20040018193A1", "about": "(priority 2002, published 2004)", "tested_on": "murine macrophages", "format": "cell-based", "conditions": "treated macrophages"}
{"substance": "IFN-γ: cytokine interferon-gamma", "values": [{"measurement": "levels of detectable tryptophan", "result": "decreased the levels of detectable tryptophan"}]}
